The target in this series is SOX2 (UniProt P48431). Description: EMSA. As to conditions: nuclear extract of SOX2-expressing HEK293, LightShift Chemiluminescent EMSA kit reaction buffer (composition and pH not stated), 20 min at room temperature, 6% polyacrylamide gel, protein in an extract, protein details: Myc tag (MCF7-SOX2-Myc in Methods), label: biotin.

Protein sequences, listed by entry. Tags and fused reporters are not part of them. Lines headed by an entry give the natural chain unless they say otherwise; changes in a name come on top.
UniProt P48431: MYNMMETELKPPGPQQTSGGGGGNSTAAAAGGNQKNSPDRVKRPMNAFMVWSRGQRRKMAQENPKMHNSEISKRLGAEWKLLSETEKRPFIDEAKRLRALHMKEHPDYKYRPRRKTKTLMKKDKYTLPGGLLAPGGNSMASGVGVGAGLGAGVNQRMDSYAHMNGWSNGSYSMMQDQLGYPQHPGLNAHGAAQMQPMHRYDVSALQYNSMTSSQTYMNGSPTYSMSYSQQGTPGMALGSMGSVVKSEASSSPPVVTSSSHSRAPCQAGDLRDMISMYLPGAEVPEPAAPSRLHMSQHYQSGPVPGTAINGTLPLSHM

The exact form of at least one protein or probe is not confirmed. Results from cells or extracts need not show a direct contact.

With “ATCTCCTCCCCGCGCCGGAGCCCCTGTTCCTCATTTCTAG (double strand) [EMSA #6]”, the binding result is given as “binds”.

The values are drawn from article PMC6915745, “TRIB3 supports breast cancer stemness by suppressing FOXO1 degradation and enhancing SOX2 transcription” (Nature Communications, 2019).
